According to patent publication US5470830A (Ohmeda Pharmaceutical Products Division Inc., priority 1993, dated 1995):
Strings that start with PEPTIDE1 are HELM notation: dots part the residues, brackets hold end groups and non-standard residues. For some of these results: One purity is given for all peptides; the source may state it once.

Columns and labels:
[1] = Fmoc solid-phase peptide synthesis in flow; Fmoc-L-Gln(Trt)PAC; Pfp esters of Fmoc amino acids; DIC preactivation for Boc amino acids; conditions: whole synthesis
[2] = general procedure: peptide synthesis; Fmoc-L-Gln(Mbh)PepSyn KA resin; MBHA resin; Fmoc-L-Gln(Trt)PAC resin; Pfp esters of Fmoc amino acids; DIC preactivation for Boc amino acids; conditions: whole synthesis, 214 nm
[3] = solid-phase peptide synthesis; conditions: whole synthesis
[4] = Fmoc solid-phase peptide synthesis in flow; Fmoc-L-Gln(Mbh)PepSyn KA; Pfp esters of Fmoc amino acids; DIC preactivation for Boc amino acids; conditions: whole synthesis

In the case of “PEPTIDE1{[NMePhe].V.F.I.F.T.Y.G.E.L.Q.R.L.Q}$$$$V2.0”, the isolated yield [1] is reported as 18% and the “final HPLC purity” value [2] is reported as >95%.
For “PEPTIDE1{F.V.F.I.F.T.Y.G.E.L.Q.R.[am]}$$$$V2.0”, the “final HPLC purity” value [2] was >95% and the isolated yield [3] was 21%.
For “PEPTIDE1{F.V.F.I.F.T.Y.G.E.L.Q.R.L.Q.E.K.E.R.N.K.G.Q}$$$$V2.0”, the crude yield [4] was 70%, the isolated yield [4] was 27% and the “final HPLC purity” value [2] was >95%.
